Some of these results come from one statement about several compounds together.
Test system: macrophage J774 cells line
Test: Cytotoxicity assay (MTT) in macrophage J774 cells
Format: cell-based
Details: macrophage J774, 24 hrs incubation, tested at 40 μg/ml
Experimental: The study was carried out using macrophage J774 cells line (ATCC-USA). Cells were grown in Rosewell Park Memorial Institute Medium (RPMI) containing 10% fetal calf serum (FCS) and supplemented with 75 mg/liter penicillin, 100 mg/liter streptomycin, 110 mg/liter Sodium pyruvate, 2.38 gm/liter HEPES, 0.05 mM 2 β-mercaptoethanol, and 2 gm/liter NaHCO3, in a humidified atmosphere in 5% CO2 at 37° C., and were sub-cultured at 1:4 ratio once a week.
Cells were plated at a density of 3×10^4 cells/cm^2 and maintained in culture medium for 12 hours. Cells were seeded onto 96-well flat bottom plates and FCS was reduced to 5% for the experiment. Stock solutions of compounds 9 to 37 were prepared fresh to avoid oxidation. Cells were incubated with the compounds (40 μg/ml) for 24 hrs.
After the completion of incubation, the medium was removed and cell viability was evaluated by assaying for the ability of functional mitochondria to catalyze the reduction of 3-(4,5-dimethylthiazol-2-yl)-2,5-diphenyltetrazolium bromide (MTT) to form formazan salt by mitochondrial dehydrogenases, and determined by Elisa reader at 450 nm (Multiskan Spectrum; Thermo Electron Corporation, USA). Percentage cytotoxicity was calculated with respect to the untreated cells.

In the case of `C[C@]1(Cn2cc(COc3ccccn3)nn2)Cn2cc([N+](=O)[O-])nc2O1` [I19, (R)-2-Methyl-6-nitro-2-((4-((pyridin-2-yloxy)methyl)-1H-1,2,3-triazol-1-yl)methyl)-2,3-dihydroimidazo[2,1-b]oxazole], the Cytotoxicity (listed as Compound I19) is reported as over 40 µg/mL.

For `C[C@]1(Cn2cc(-c3ccc(F)cc3F)nn2)Cn2cc([N+](=O)[O-])nc2O1` [I5, (R)-2-((4-(2,4-Difluorophenyl)-1H-1,2,3-triazol-1-yl)methyl)-2-methyl-6-nitro-2,3-dihydroimidazo[2,1-b]oxazole], the Cytotoxicity (listed as Compound I5) was over 40 µg/mL.

In the case of `CCc1ccc(OCc2cn(C[C@@]3(C)Cn4cc([N+](=O)[O-])nc4O3)nn2)cc1` [I15, (R)-2-((4-((4-Ethylphenoxy)methyl)-1H-1,2,3-triazol-1-yl)methyl)-2-methyl-6-nitro-2,3-dihydroimidazo[2,1-b]oxazole], the Cytotoxicity (listed as Compound I15) is reported as over 40 µg/mL.

Molecule `C[C@]1(Cn2cc(-c3ccc(F)cc3)nn2)Cn2cc([N+](=O)[O-])nc2O1` [I3, (R)-2-((4-(4-Fluorophenyl)-1H-1,2,3-triazol-1-yl)methyl)-2-methyl-6nitro-2,3-dihydro imidazo[2,1-b]oxazole] has a Cytotoxicity (listed as Compound I3) of over 40 µg/mL.

For `C[C@]1(Cn2cc(COc3ccc(C(F)(F)F)cc3)nn2)Cn2cc([N+](=O)[O-])nc2O1` [I9, (R)-2-Methyl-6-nitro-2-((4-((4-(trifluoromethyl)phenoxy)methyl)-1H-1,2,3-triazol-1-yl)methyl)-2,3-dihydroimidazo[2,1-b]oxazole], the Cytotoxicity (listed as Compound I9) was over 40 µg/mL.

`C[C@]1(Cn2cc(COc3cccc(F)c3)nn2)Cn2cc([N+](=O)[O-])nc2O1` [I16, (R)-2-((4-((3-Fluorophenoxy)methyl)-1H-1,2,3-triazol-1-yl)methyl)-2-methyl-6-nitro-2,3-dihydroimidazo[2,1-b]oxazole] was tested, and the Cytotoxicity (listed as Compound I16) was over 40 µg/mL.

`C[C@]1(Cn2cc(COc3ccc(Br)cc3)nn2)Cn2cc([N+](=O)[O-])nc2O1` [I11, (R)-2-((4-((4-Bromophenoxy)methyl)-1H-1,2,3-triazol-1-yl)methyl)-2-methyl-6-nitro-2,3-dihydroimidazo[2,1-b]oxazole] showed a Cytotoxicity (listed as Compound I11) of over 40 µg/mL.

Molecule `C[C@]1(Cn2cc(COc3ccccc3F)nn2)Cn2cc([N+](=O)[O-])nc2O1` [I17, (R)-2-((4-((2-Fluorophenoxy)methyl)-1H-1,2,3-triazol-1-yl)methyl)-2-methyl-6-nitro-2,3-dihydroimidazo[2,1-b]oxazole] has a Cytotoxicity (listed as Compound I17) of over 40 µg/mL.

`CCCCCc1cn(C[C@@]2(C)Cn3cc([N+](=O)[O-])nc3O2)nn1` [I7, (R)-2-[(4-Pentyl-1H-1,2,3-triazol-1-yl)methyl]-2,3-dihydro-2-methyl-6-nitroimidazo[2,1-b]oxazole] gave a Cytotoxicity (listed as Compound I7) of over 40 µg/mL.

For `C[C@]1(Cn2cc(COc3ccc(OC(F)(F)F)cc3)nn2)Cn2cc([N+](=O)[O-])nc2O1` [I8, (R)-2-Methyl-6-nitro-2-((4-((4-(trifluoromethoxy)phenoxy)methyl)-1H-1,2,3-triazol-1-yl)methyl)-2,3-dihydroimidazo[2,1-b]oxazole], the Cytotoxicity (listed as Compound I8) was over 40 µg/mL.

`C[C@]1(Cn2cc(-c3ccc(C(F)(F)F)cc3)nn2)Cn2cc([N+](=O)[O-])nc2O1` [I2, (R)-2-Methyl-6-nitro-2-((4-(4-(trifluoromethyl)phenyl)-1H-1,2,3-triazol-1-yl)methyl)-2,3-dihydroimidazo[2,1-b]oxazole] showed a Cytotoxicity (listed as Compound I2) of over 40 µg/mL.

In the case of `Cc1cc(-c2cn(C[C@@]3(C)Cn4cc([N+](=O)[O-])nc4O3)nn2)ccc1F` [I4, (R)-2-((4-(4-Fluoro-3-methylphenyl)-1H-1,2,3-triazol-1-yl)methyl)-2-methyl-6-nitro-2,3-dihydroimidazo[2,1-b]oxazole], the Cytotoxicity (listed as Compound I4) is reported as over 40 µg/mL.

For `Cc1ccc(OCCc2cn(C[C@@]3(C)Cn4cc([N+](=O)[O-])nc4O3)nn2)cc1` [I21, (R)-2-Methyl-6-nitro-2-((4-(2-(p-tolyloxy)ethyl)-1H-1,2,3-triazol-1-yl)methyl)-2,3-dihydroimidazo[2,1-b]oxazole], the Cytotoxicity (listed as Compound I21) was over 40 µg/mL.

In the case of `C[C@]1(Cn2cc(CN3CCOCC3)nn2)Cn2cc([N+](=O)[O-])nc2O1` [I22, (R)-2-Methyl-2-((4-(morpholinomethyl)-1H-1,2,3-triazol-1-yl)methyl)-6-nitro-2,3-dihydroimidazo[2,1-b]oxazole], the Cytotoxicity (listed as Compound I22) is reported as over 40 µg/mL.

`C[C@]1(Cn2cc(-c3ccc(Oc4ccccc4)cc3)nn2)Cn2cc([N+](=O)[O-])nc2O1` [I6, (R)-2-Methyl-6-nitro-2-((4-(4-phenoxyphenyl)-1H-1,2,3-triazol-1-yl)methyl)-2,3-dihydroimidazo[2,1-b]oxazole] showed a Cytotoxicity (listed as Compound I6) of over 40 µg/mL.

`Cc1ccc(SCc2cn(C[C@@]3(C)Cn4cc([N+](=O)[O-])nc4O3)nn2)cc1` [I20, (R)-2-Methyl-6-nitro-2-((4-((p-tolylthio)methyl)-1H-1,2,3-triazol-1-yl)methyl)-2,3-dihydroimidazo[2,1-b]oxazole] showed a Cytotoxicity (listed as Compound I20) of over 40 µg/mL.

For `C[C@]1(Cn2cc(-c3ccc(OC(F)(F)F)cc3)nn2)Cn2cc([N+](=O)[O-])nc2O1` [I1, (R)-2-Methyl-6-nitro-2-((4-(4-(trifluoromethoxy)phenyl)-1H-1,2,3-triazol-1-yl)methyl)-2,3-dihydroimidazo[2,1-b]oxazole], the Cytotoxicity (listed as Compound I1) was over 40 µg/mL.

Work on `Cc1ccc(OCc2cn(C[C@@]3(C)Cn4cc([N+](=O)[O-])nc4O3)nn2)cc1` [I12, (R)-2-Methyl-6-nitro-2-((4-((p-tolyloxy)methyl)-1H-1,2,3-triazol-1-yl)methyl)-2,3-dihydroimidazo[2,1-b]oxazole] yielded a Cytotoxicity (listed as Compound I12) of over 40 µg/mL.
